Targets, with sequences 5′ to 3′:
PreQ1: PreQ1 riboswitch RNA pseudoknot, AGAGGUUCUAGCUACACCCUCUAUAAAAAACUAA. From B. subtilis. About 170 hits among about 24,000 compounds.
SAM-II: SAM-II riboswitch RNA pseudoknot, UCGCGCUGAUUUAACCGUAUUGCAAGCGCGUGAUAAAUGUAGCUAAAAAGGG. About 200 hits among about 21,000 compounds.
TPP: TPP riboswitch RNA three-way junction, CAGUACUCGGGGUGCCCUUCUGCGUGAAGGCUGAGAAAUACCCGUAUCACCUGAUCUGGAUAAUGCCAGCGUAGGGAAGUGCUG. About 160 hits among about 24,000 compounds.

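Each compound is printed as two spots on a slide made to bind it covalently, so it has no test concentration; the read-out is fluorescence of the bound, labelled oligonucleotide. For the PreQ1, TPP and SAM-II riboswitches the laboratory earlier reported (doi:10.1038/s41467-019-09493-3) 1 µM RNA, 2 h, and a rule that included a mean Z-score above 3 (spot signal-to-noise against the whole library), a score well above that on a control array, and duplicate spots agreeing (coefficient of variation under 100). The data file gives only the calls; its cut-offs may differ, and compounds hitting several targets are kept. These are primary screening calls, not affinities; a compound without a hit may have attached poorly or may still bind in solution.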
A compound is marked 1 if it was called a hit and 0 if it was screened but was not.
This is an unselected part of the compounds tested.
A dash means that no call is listed here.

structure | PreQ1 | SAM-II | TPP
CCOCCn1c(CN2CCN(CCO)CC2)nc2c1c(=O)n(C)c(=O)n2C | 0 | 0 | 0
CN(CCOc1ccc(NS(C)(=O)=O)cc1)CCc1ccc(NS(C)(=O)=O)cc1 | 0 | 0 | 0
O=C1N(Cc2ccc(F)c(F)c2)CCCC1(O)CNCCc1ccccn1 (configuration not stated) | 0 | 0 | 0
CC(C)N(CCCNC(=O)Nc1ccc(C(C)(C)C)cc1)C[C@H]1O[C@@H](n2cc(Br)c3c(N)ncnc32)[C@H](O)[C@H]1O | 0 | 0 | 0
CCN(CC)c1ccc(Nc2c(-c3ccc(Cl)cc3)c(=O)c2=O)c(C)c1 | 0 | - | 0
COC(=O)c1sc2nc(N3CCCC3)c3c(c2c1N)CCCC3 | 0 | - | 0
c1cnc(N2CCCC(n3ccnc3-c3cc4n(n3)CCCNC4)C2)nc1 (configuration not stated) | 0 | 0 | 0
Cc1nc(N)nc(C)c1CC(=O)N1CCCN(C2Cc3ccccc3C2)CC1 | 0 | 0 | 0
c1cc(N[C@@H]2CCNC2)nc(-c2cnc3ccc(-c4cn[nH]c4)cn23)c1 | 0 | 0 | 0
CC(O)c1nc2ccccc2n1CC(=O)N(c1ccccc1)C(C)C (configuration not stated) | 0 | 0 | 0
CCOC(=O)CNc1ccccc1C(=O)NCCN1CCOCC1 | 0 | 0 | 0
Cn1c(NCCO)nc2c1c(=O)n(Cc1ccccc1Cl)c(=O)n2C | 0 | 0 | 0
CNS(=O)(=O)CCNCC(=O)NCc1ccccc1F | 0 | 0 | 0
COCC1(C(=O)N2CCCC(Nc3ccccc3)C2)CCC1 (configuration not stated) | 0 | 0 | 0
COc1ccc(CNCc2ccc(Br)cc2)cc1 | 0 | 0 | 0
Cc1ccc([C@H]2CN(C(=O)Cc3ccccc3C(F)(F)F)C[C@@H]2N)o1 | 0 | 0 | 0
COc1ccc2oc(C)c(C(=O)c3oc4ccccc4c3N)c2c1 | 0 | 0 | 0
OCCC1CN(c2noc(-c3ccccc3)n2)CCN1C1CCCCC1 (configuration not stated) | 0 | 0 | 0
Cc1[nH]c2c(F)cc(F)cc2c1CCNC(C)Cn1cncn1 (configuration not stated) | 0 | 0 | 0
OC1(CNCCOCc2ccc(Cl)cc2)CNCCOC1 (configuration not stated) | 0 | 0 | 0
CCn1c(C2CCCNC2)nn(Cc2ccc(Cl)s2)c1=O (configuration not stated) | 0 | 0 | 0
CN(C)c1ccc(/N=N/c2ccccn2)cc1 | 0 | 0 | 0
Cn1cnc2ncnn2c1=S | 0 | 0 | 0
O=C(O)c1ccc(NCc2cccnc2)cc1Cl | 0 | 0 | 0
Cc1c(CCO)sc[n+]1Cc1ccccc1.[Cl-] | 0 | 0 | 0
Nc1nc(CCC(=O)N2CCCCC2CCc2cccc(O)c2)n[nH]1 (configuration not stated) | 0 | 0 | 0
Cc1cccc(N2C(N)=C(C#N)C3(C(=O)N(Cc4ccccc4F)c4ccccc43)C3=C2COC3=O)c1 (configuration not stated) | 0 | 0 | 0
CNc1nc2c(c(=O)n(C)c(=O)n2C)n1Cc1cccc(C)c1 | 0 | 0 | 0
COc1c(C)cnc(CN)c1C | 0 | 0 | 0
CCn1c(C2CCNCC2)nn(Cc2ccc(C(=O)NC)o2)c1=O | 0 | 0 | 0
COCCN1CC(C(=O)NCc2c(C)ncc3c2CCNC3)CC1=O (configuration not stated) | 0 | 0 | 0
O=C(CCCO)NCCc1nc2ccccc2n1Cc1ccc(Cl)cc1 | 0 | - | 0
Cn1c(-c2cccc(Br)c2)cnc1NCc1ccccc1 | 0 | 0 | 0
Cn1c(=O)n(C)c2cc(CNCc3ccccc3Cl)ccc21 | 0 | - | 0
C[C@H](CCC(=O)O)[C@H]1CC[C@@]2(C)[C@@H]3C(=O)C[C@H]4C(C)(C)[C@@H](O)CC[C@]4(C)[C@H]3C(=O)C[C@]12C | 0 | 0 | 0
COc1ccccc1N(CC(O)COc1ccccc1Cl)S(=O)(=O)c1ccccc1 (configuration not stated) | 0 | 0 | 0
Cn1nnnc1SCCN[C@@H]1CN(C(=O)C2CCC2)C[C@H]1O | 0 | 0 | 0
CCCCCCNc1nc(OC)nc(N2CC3CC(C2)c2cccc(=O)n2C3)n1 (configuration not stated) | 0 | 0 | 0
Cc1nc2nc(CN)nn2c(C)c1CCC(=O)Nc1cccc(Br)c1 | 0 | - | 1
Cc1c(C)n(CC(O)CNc2ccc(Br)cc2)c2ccccc12 (configuration not stated) | 0 | 0 | 0
CCOC(=O)C1=C(N)OC(C)=C(C(=O)OCCOC)C12C(=O)N(C)c1ccccc12 (configuration not stated) | 0 | 0 | 0
CC(C)OC(=O)C1=C(N)OC2=C(C(=O)CCC2)C1c1ccc(Cl)cc1 (configuration not stated) | 0 | 0 | 0
O=C(Cc1c[nH]c(=O)[nH]c1=O)N1C[C@@H](CN2CCOCC2)[C@@H](CO)C1 | 0 | 0 | 0
CN(C)C(=O)c1cc2c(s1)CCN(C(=O)[C@H]1CC[C@@H](N)C1)C2 | 0 | 0 | 0
CC(=O)c1cccc(-c2ccc(NCCO)nn2)c1 | 0 | 0 | 0
NCC(c1ccc(Cl)cc1)N1CCCCC1 (configuration not stated) | 0 | 0 | 0
Nc1nonc1-c1nc2ccccc2n1CC(=O)Nc1cccc(F)c1 | 0 | 0 | 0
CC(C)(C)c1cc(C(=O)O)c(NC(=O)Nc2ccc3[nH]ncc3c2)s1 | 0 | 0 | 0
Br.Br.COC(=O)CCCCC1SCC(N)C1N (configuration not stated) | 0 | 0 | 0
O=C(c1cccc(CC2CCNCC2)c1)N1CCN(C2CCCC2)C(=O)C1 | 0 | 0 | 0
CC(=O)Nc1ccc(S(=O)(=O)N(CCO)Cc2ccccc2)cc1 | 0 | 0 | 0
CC(=O)c1cc(CC(=O)N[C@H]2CC[C@@H](N)CC2)cs1 | 0 | 0 | 0
Cc1ccsc1[C@@H]1CCN(C(=O)CC2=CSC3=NCCCN23)C[C@H]1O | 0 | 0 | 0
Cc1ccc(-c2cc(C(=O)N[C@@H]3CN[C@H](C(=O)O)C3)[nH]n2)s1 | 0 | 0 | 0
Nc1nonc1C(=O)c1ccc(F)cc1 | 0 | 0 | 0
O=C(NCc1cc2n(n1)CCCNC2)c1ccc(N2CCCCC2)cc1 | 0 | 0 | 0
Cc1ccc2[nH]cc(C(O)CN3CCN(c4ccc(F)cc4)CC3)c2c1 (configuration not stated) | 0 | - | 0

The first 7 entries again:

structure	PreQ1	SAM-II	TPP
CCOCCn1c(CN2CCN(CCO)CC2)nc2c1c(=O)n(C)c(=O)n2C	0	0	0
CN(CCOc1ccc(NS(C)(=O)=O)cc1)CCc1ccc(NS(C)(=O)=O)cc1	0	0	0
O=C1N(Cc2ccc(F)c(F)c2)CCCC1(O)CNCCc1ccccn1 (configuration not stated)	0	0	0
CC(C)N(CCCNC(=O)Nc1ccc(C(C)(C)C)cc1)C[C@H]1O[C@@H](n2cc(Br)c3c(N)ncnc32)[C@H](O)[C@H]1O	0	0	0
CCN(CC)c1ccc(Nc2c(-c3ccc(Cl)cc3)c(=O)c2=O)c(C)c1	0	-	0
COC(=O)c1sc2nc(N3CCCC3)c3c(c2c1N)CCCC3	0	-	0
c1cnc(N2CCCC(n3ccnc3-c3cc4n(n3)CCCNC4)C2)nc1 (configuration not stated)	0	0	0

From ROBIN, a set of small-molecule microarray screens (doi:10.1002/anie.202211358).